PubChem BioAssay AID504808 – Drosophila RNAi Screening Center, 2011

Assay: 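Chromatin factors that keep E2F targets switched off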 (primary screen)
Cell system: Drosophila S2 cells
Reagents: long dsRNA against Drosophila genes
Read-out: 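Firefly luciferase driven by E2F sites, normalised to Renilla luciferase on the same minimal promoter, measured by plate reader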
Scale: E2F firefly: higher = more E2F reporter activity; Renilla normaliser: higher = more normaliser reporter signal
Active means: 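a knock-down counted as active when the firefly/Renilla E2F signal rose above 50%, a threshold chosen arbitrarily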
The deposit covers about 21,000 reagents; below is an unselected part of those with a known target gene and a result. Over the whole deposit, 18 (0.084%) were called active. 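Raw counts without plate normalisation, one of two replicates; the ratio scores behind the calls were not deposited.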 Entries without a mark were called inactive. The numbers tell different reagents against one gene apart. Names joined by + are all predicted targets of the reagent. Not given: the amount of reagent, the time to read-out.

target gene | dsRNA no. | E2F firefly, rep 1 | Renilla normaliser, rep 1
Gpo2 | 1 | 1.17e5 | 3931
Fdx2 | 1 | 83241 | 3866
CG6345 | 1 | 1.45e5 | 6312
fd3F (retired record) + Crg-1 | 1 | 88175 | 2820
CG7910 | 1 | 1.48e5 | 6652
SiaT | 1 | 1.12e5 | 4674
CG13807 | 1 | 93511 | 3893
CG10799 | 1 | 97999 | 3965
CG14401 | 1 | 1.05e5 | 4158
Nnp-1 | 1 | 97073 | 4139
bdl | 1 | 87451 | 3741
RpL27 | 1 | 50014 | 5626
MFS15 | 1 | 1.52e5 | 4763
FASN1 | 1 | 65798 | 4003
CG13671 | 1 | 82569 | 3152
robls54B | 1 | 1.71e5 | 6782
ebi | 1 | 79120 | 3708
CG14840 | 1 | 94599 | 5212
CG32163 | 1 | 1.30e5 | 4429
CG30323 | 1 | 1.59e5 | 4529
CG11112 | 1 | 1.37e5 | 4850
mthl13 | 1 | 1.29e5 | 5692
Grip71 | 1 | 1.01e5 | 3784
CG11382 | 1 | 1.20e5 | 5149
LysS | 1 | 1.02e5 | 4078
EndoG | 1 | 86695 | 4312
Obp99a | 1 | 1.08e5 | 6595
HP4 | 1 | 68233 | 3523
CG42399 | 1 | 1.46e5 | 5119
CG42399 | 2 | 1.48e5 | 5697
cpo | 1 | 79170 | 2194
dmrt11E | 1 | 1.10e5 | 6008

Continued (5 carried over from the part before).
target gene | dsRNA no. | E2F firefly, rep 1 | Renilla normaliser, rep 1
HP4 | 1 | 68233 | 3523
CG42399 | 1 | 1.46e5 | 5119
CG42399 | 2 | 1.48e5 | 5697
cpo | 1 | 79170 | 2194
dmrt11E | 1 | 1.10e5 | 6008
CG30375 | 1 | 1.63e5 | 5775
CG13722 | 1 | 90280 | 3734
par-1 | 1 | 1.32e5 | 4549
par-1 | 2 | 1.46e5 | 4862
par-1 | 3 | 81878 | 3903
par-1 | 4 | 1.16e5 | 4453
par-1 | 5 | 1.40e5 | 4967
CG13972 | 1 | 1.02e5 | 7101
CG4293 | 1 | 1853 | 948
side-VII | 1 | 62492 | 3507
Rgk2 | 1 | 1.40e5 | 4994
PIG-L | 1 | 1.42e5 | 7514
CG10550 | 1 | 1899 | 1000
CG14104 | 1 | 1.21e5 | 6225
CG18324 | 1 | 3194 | 202
Nepl10 | 1 | 93724 | 4317
Prosalpha3 | 1 | 88085 | 4791
CG32982 | 1 | 1.03e5 | 5669
CG32982 | 2 | 1.73e5 | 5207
CG32982 | 3 | 1.67e5 | 5415
CG32982 | 4 | 1.49e5 | 4712
ppk8 | 1 | 82584 | 2191
yellow-c + CIAPIN1 | 1 | 1.04e5 | 4492
ana | 1 | 3455 | 149
cbc | 1 | 2940 | 236
CG13457 | 1 | 1.47e5 | 7806
CG18063 | 1 | 97230 | 4737
CG33467 | 1 | 1.34e5 | 5092
Traf6 | 1 | 1.19e5 | 5400
RYBP | 1 | 77139 | 3546
spz4 | 1 | 1.27e5 | 4988
CG10384 | 1 | 1.21e5 | 4416
CG10384 | 2 | 86049 | 3897
Gclm | 1 | 66242 | 4257
janA | 1 | 99738 | 5540
CG34376 | 1 | 92781 | 4795
CG34376 | 2 | 1.30e5 | 6776
CG34376 | 3 | 1.08e5 | 6064
CG33232 (retired record) | 1 | 75770 | 3018
CG33232 (retired record) | 2 | 97571 | 3523
Sr-CII | 1 | 92423 | 4445
CG43339 + CG43338 | 1 | 84889 | 3392
CG10469 | 1 | 80803 | 3857
CG31550 | 1 | 1.48e5 | 6673
CG31550 | 2 | 86894 | 4111
Cyp28d2 | 1 | 1.37e5 | 4595
CG13539 | 1 | 94280 | 4235
BORCS7 + CG13430 | 1 | 84580 | 3719
BORCS7 + CG13430 | 2 | 88929 | 3608
betaGlu | 1 | 1928 | 968
GluRIIA | 1 | 1.48e5 | 4198
shg | 1 | 71077 | 3603
